{"source": "patent US11434534B2", "about": "“Optimizing therapeutic options in personalized medicine” (CureMatch, Inc., priority 2016, dated 2022)", "key": {"[1]": {"tested_on": "des-gamma-carboxyprothrombin (DCP), HCC biomarker", "conditions": "celecoxib 200 mg twice a day alone, after 4 weeks"}, "[2]": {"tested_on": "hepatocellular carcinoma with peritoneal carcinomatosis", "experiment": "Clinical outcome of hepatocellular carcinoma patient (Example 2)", "type": "in vivo, human", "conditions": "after 7 months; tacrolimus switched to sirolimus, before cabozantinib"}}, "note": "At least one structure is not confirmed: it was looked up by name or label, or the drawing left a doubt.", "data": [{"smiles": "Cc1ccc(-c2cc(C(F)(F)F)nn2-c2ccc(S(N)(=O)=O)cc2)cc1", "note": "[celecoxib]", "values": [{"measurement": "des-gamma-carboxyprothrombin (DCP) level", "setting": "[1]; baseline 1,520, normal 0-7", "result": "1,046 ng/ml"}, {"measurement": "decline of des-gamma-carboxyprothrombin (DCP) level", "setting": "[1]; from 1,520 ng/ml baseline", "result": 31, "unit": "%"}]}, {"smiles": "CO[C@H]1C[C@@H]2CC[C@@H](C)[C@@](O)(O2)C(=O)C(=O)N2CCCC[C@H]2C(=O)O[C@H]([C@H](C)C[C@@H]2CC[C@@H](O)[C@H](OC)C2)CC(=O)[C@H](C)/C=C(\\C)[C@@H](O)[C@@H](OC)C(=O)[C@H](C)C[C@H](C)/C=C/C=C/C=C/1C", "note": "[sirolimus]", "values": [{"measurement": "disease evaluation", "setting": "[2]", "result": "progressive disease"}]}]}
